Measured values from article PMC7053243.
These are yes or no findings as the source states them, for the method shown. Binding seen in cells or lysates may run through a third protein. Binding calls can cover weak binding; strength is not graded here.

Target: calmodulin (CaM), endogenous in quail embryo fibroblasts (quail (endogenous in QEF))
Experiment: co-IP

B1: brain acid-soluble protein 1 (BASP1), ectopic, wild type (protein, UniProt P23614 1-244)
chain: MGGKLSKKKKGYSVNDEKAKDKDKKAEGAATEEEETPKEAEDAQQTTETTEVKENNKEEKVEKDAQVSANKTEEKEGEKEKTVTQEEAQKAEPEKSEAVVDAKVEPQKNNEQAPKQEEPAAASAPAASSEAPKTSEPSSDAKASQPSEATAPSKADDKSKEEGEAKKTEAPATPAAQETKSEVAPASDSKPSSSEAAPSSKETVAATAAPSSTAKASDPSAPPEEAKPSEAPATNSDQTIAVQD
binding: binds
